Experimental data: PubChem BioAssay AID2685 (National Center for Advancing Translational Sciences (NCATS), 2010)
Some of the results follow. Further columns of the screen follow, without active or inactive calls. The list favours compounds with an active or inconclusive main result. Potencies come from curve fits of mixed quality, noted in brackets.

Test: qHTS Assay for Lipid Storage Modulators in Drosophila S3 Cells;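 on cell number change: cells counted by Cell Tracker Red CMTPX staining in the red channel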
Conditions: BODIPY lipid droplet fluorescence, 18-24 h; for cell number change: measured here: cell count max response, cells fed with added oleic acid
In short: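 Drosophila S3 cells got compounds at several concentrations plus oleic acid (400 uM solution). Laser-scanning cytometry with 488 nm excitation read lipid droplets at 500-530 nm and cells at 575-640 nm. Percent activity was relative to 20 uM Triacsin C.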

[1] = measured here: lipid fluorescence (Fed channel) AC50, cells fed with added oleic acid
[2] = measured here: cell number channel AC50, cells fed with added oleic acid

SMILES | cell number change [%] | AC50 [1] | AC50 [2]
CC(C)NC(=O)CS(=O)(=O)c1ccccc1 | 4.19 | – | –
COC(CNC(=O)c1ccc(N2CCc3ccccc32)c([N+](=O)[O-])c1)OC | – | 18.4 µM [falling, partial curve] | –
CN(C)n1cnc2ccsc2c1=O | 31.1 | – | 5.17 µM [falling, single point]
CCN(CC)c1ccc(NC(=O)COC(=O)c2cccs2)cc1 | – | 0.092 µM [rising, partial curve, poor fit] | –
Cn1c(=O)c2c(SCC(=O)NCc3ccco3)nc(CC(C)(C)C)nc2n(C)c1=O | -15.7 | – | –
COc1ccc(NC(=O)CSc2n[nH]c(CNc3cccc(C)c3)n2)cc1 | 2.63 | – | 1.64 µM [falling, partial curve]
Cc1ccc(-n2c(SCC(=O)OC(C)C)nnc2-c2ccco2)cc1 | 34.5 | 5.17 µM [rising, partial curve] | 6.51 µM [rising, single point]
Cc1ccn(CC(=O)NC2CCCN(Cc3ccc(CC(C)C)cc3)C2)n1 (stereo not given) | 26.7 | 3.26 µM [rising, partial curve] | 6.51 µM [rising, single point]
CC1CC(C)CN(S(=O)(=O)N2CCCC(C(=O)NC3CCCCC3C)C2)C1 (stereo not given) | 18.8 | – | –
O=C(/C=C(/c1ccc(Cl)cc1)n1cncn1)c1ccccc1 | -5.45 | 7.31 µM [rising, partial curve] | –
Cc1ccc(NC(=O)COC(=O)/C=C/c2ccccc2)cc1S(=O)(=O)N1CCOCC1 | 6.87 | – | –
C/C(CC(=O)Nc1ccc(Cl)c(Cl)c1)=N\NC(=O)Cc1ccccc1 | 30.4 | 20.6 µM [falling, single point] | 9.2 µM [rising, single point]
CCN(CC)S(=O)(=O)c1cc(NC(=O)C2CSC3(C)CCC(=O)N23)ccc1C (stereo not given) | -11.7 | – | –
COc1ccc(C)cc1NC(=O)CSc1nc2ccccc2nc1N1CCCCC1 | 6.34 | 0.92 µM [rising, full curve, poor fit] | –
O=C(CCc1nc(-c2ccccc2Cl)no1)NCCc1ccccc1 | 7.67 | – | –
COc1ccccc1CNC(=O)COC(=O)Cc1cccc(F)c1 | 28.4 | 11.6 µM [rising, partial curve] | –
O=C(COC(=O)c1ccccc1N1C(=O)C2C3CCC(C3)C2C1=O)c1ccccc1 (stereo not given) | -42.6 | 6.51 µM [falling, single point] | 4.11 µM [falling, full curve]
CCCN1C=CC(=C2C(=O)c3ccccc3C2=O)C=C1 | -13.6 | 3.66 µM [rising, partial curve, poor fit] | –
O=C(O)c1cc([N+](=O)[O-])cc2c1nnn2O | -11.6 | 3.26 µM [falling, single point] | –
CC(C)Cn1c(SCC(=O)c2ccc(Cl)s2)nnc1-c1ccco1 | -23.7 | – | –
CCOC(=O)c1c2ccccc2[n+]([O-])n1[C@@H](C)C(N)=O | 21.6 | 0.517 µM [rising, partial curve, poor fit] | –

Rewritten as tab-separated lines: part of the list above.
SMILES	cell number change [%]	AC50 [1]	AC50 [2]
Cn1c(=O)c2c(SCC(=O)NCc3ccco3)nc(CC(C)(C)C)nc2n(C)c1=O	-15.7	–	–
COc1ccc(NC(=O)CSc2n[nH]c(CNc3cccc(C)c3)n2)cc1	2.63	–	1.64 µM [falling, partial curve]

Continuation.

SMILES | cell number change [%] | AC50 [1] | AC50 [2]
Cc1ccccc1-n1ncc2c1CC(C)(C)CC2NC(=O)c1cn[nH]c1C (stereo not given) | 1.14 | – | –
CCCCCCSc1cc(-c2nc3cc(C)ccn3c2NC2CCCCC2)ccc1OC | 9.97 | 18.4 µM [falling, single point] | –
N#CCC(=O)Nc1ccc(C(=O)NNC(=O)c2ccccc2-n2cccc2)cc1 | -25.9 | 25.9 µM [falling, partial curve, poor fit] | –
O=C(COC(=O)C1CC1)Nc1ccc(N=Nc2ccccc2)cc1 | 6.61 | 4.11 µM [rising, single point] | –
CC(C)(C)OC(=O)NCCc1nnc(S(=O)(=O)Cc2ccc(Cl)cc2Cl)o1 | -89.1 | 11.6 µM [falling, partial curve] | 18.4 µM [falling, partial curve]
Cc1cccc(NC(=O)CCNS(=O)(=O)c2ccc(Cl)cc2)c1 | 7.56 | 0.13 µM [rising, partial curve, poor fit] | –
COc1nc(N(C)S(=O)(=O)c2ccc(C)cc2)nc(C)c1Br | -4.01 | 0.00461 µM [rising, full curve, poor fit] | –
COc1ccc(NS(=O)(=O)c2ccc3c(c2)NC(=O)CO3)c(OC)c1 | -6.49 | – | –
Cc1cccc(C)c1NC(=O)C1CCCN1C(=O)NCc1ccccc1 (stereo not given) | 16.2 | – | 0.116 µM [rising, full curve, poor fit]
CSc1ccc(S(=O)(=O)NCCSC(C)(C)C)cc1 | 6.51 | 25.9 µM [falling, partial curve] | 2.31 µM [falling, partial curve, poor fit]
CCCCC(=O)Nc1ccc(C(=O)c2ccccc2)cc1 | -4.41 | – | –
O=C(CSc1nnc(Cc2ccccc2)o1)Nc1ccc2c(c1)OCO2 | – | 0.58 µM [rising, single point] | 0.206 µM [rising, full curve]
CCC(=O)NC(=S)Nc1ccccc1C(=O)NC1CCCCC1 | 101 | 1.03 µM [falling, single point] | 29.1 µM [rising, single point]
Cc1ccc(C)c(OCc2nc(-c3cccnc3)no2)c1 | -25.8 | 14.6 µM [falling, partial curve] | –
Cc1c(CN2CCC(C(=O)Nc3cccc(-c4cccc(Cl)c4)c3)CC2)cnn1C | – | 6.51 µM [rising, single point] | –
CC(C)c1ccc(NC(=O)c2csnn2)cc1 | -12.9 | 6.51 µM [falling, single point] | –
Cc1ccc(C)c(N(Cc2ccccc2F)S(C)(=O)=O)c1 | -15.3 | – | –
COc1ccc(Cc2c(O)nc(SCC(=O)NC(C)(C)C)[nH]c2=O)cc1 | -16.7 | 29.1 µM [falling, single point] | –
COc1ccc(C(=O)NCC2OCCc3ccccc32)cc1OC (stereo not given) | 5.6 | 6.51 µM [rising, single point] | –
COc1ccc(S(=O)(=O)N[C@@H](Cc2ccccc2)C(=O)N2CC[C@@]3(O)CCCC[C@H]3C2)cc1 | -14.6 | 29.1 µM [rising, single point] | –
O=C(OCC(=O)c1c[nH]c2ccccc12)c1ccc([N+](=O)[O-])s1 | -19.1 | – | –

SMILES | cell number change [%] | AC50 [1] | AC50 [2]
Cn1nc(-c2ccccc2)c(-c2nc(-c3ccc(Cl)cc3)no2)c1Cl | 79.1 | 0.58 µM [rising, single point] | 23.1 µM [rising, partial curve]
CCn1c(SCC(=O)Nc2ccc(OC)c(OC)c2)nnc1-c1c[nH]c2ccccc12 | – | 2.31 µM [rising, partial curve] | 2.31 µM [rising, partial curve]
COc1c(C)cccc1C(=O)NC(=S)Nc1ccccc1N1CCCC1 | – | – | 2.91 µM [rising, partial curve, poor fit]
CC(OC(=O)c1ccc(-n2cnnn2)cc1)C(=O)NCc1ccccc1 (stereo not given) | 19.5 | – | –
COc1cccc(C2C(C(=O)Nc3ccc(C)cc3C)=C(C)Nc3ncnn32)c1OC (stereo not given) | 22.9 | 32.6 µM [rising, single point] | –
O=c1[nH]nc(SCc2nc3ccccc3s2)n1C1CC1 | -43.7 | 0.164 µM [falling, full curve] | 0.0651 µM [falling, full curve]
Clc1ccc(-c2nc(-c3cnccn3)no2)cc1 | 31.7 | 3.26 µM [rising, partial curve] | 3.66 µM [rising, full curve, poor fit]
CN(C)CCCN(C(=O)c1ccc(S(=O)(=O)N(C)C)cc1)c1nc2ccc(F)cc2s1 | 8.09 | 6.51 µM [falling, single point] | –
CN(c1ccccc1)S(=O)(=O)c1ccc(Cl)c(C(=O)NCc2ccccc2CN2CCCC2)c1 | 14.2 | 29.1 µM [rising, partial curve, poor fit] | –
CN1CCN(CCOc2ccc(Cl)c(Cl)c2)CC1 | -23 | – | 0.00461 µM [falling, full curve, poor fit]
CCOc1cc(S(=O)(=O)Nc2ccncc2)ccc1F | -7.73 | 1.64 µM [falling, full curve] | –
COc1cccc(-n2c(=O)c3c(C)c(C(=O)N(C)C)sc3n(CC(=O)NCCc3ccc(OC)c(OC)c3)c2=O)c1 | -0.538 | – | –
CO/N=C(\C(=O)N[C@@H]1C(=O)N2C(C(=O)O)=C(COC(C)=O)CS[C@H]12)c1csc(N)n1 (stereo in doubt) | 34 | 29.1 µM [rising, single point] | 29.1 µM [rising, single point]
O=C1N=C(N2CCCC2)S/C1=C\C=C\c1ccccc1 | 7.15 | 1.46 µM [rising, partial curve] | 0.651 µM [rising, partial curve]
CCc1c(C)sc(NC(=O)OC)c1C(=O)N1CCCCC1 | -3.14 | 0.146 µM [falling, full curve] | 0.92 µM [falling, full curve, poor fit]
O=C(CSc1ccccn1)Nc1ccc(NC(=O)CSc2ccccn2)cc1 | -24.6 | – | –
Cc1oc2nc(SCCCC(=O)NCCCO)nc(N)c2c1C | – | – | 2.06 µM [rising, partial curve]
O=C1c2ccccc2NC(c2ccc(F)cc2)N1Cc1ccccc1 (stereo not given) | -1.8 | – | 0.00411 µM [rising, full curve, poor fit]
OCc1ccc(-c2nn(Cc3ccccc3)c3ccccc23)o1 | 18.6 | 3.26 µM [rising, full curve] | –
